Reference: PMC12596378
No constants are given. Whether binding was seen depends on the method and setting. For some of these results: In cells and extracts the contact can be indirect. Some binding calls cover weakened binding; strength is not graded here. For some of these results: Tags and fused reporters may be left off the sequences shown.

Chains of the proteins cited; added tags and fusions are not shown. Lines headed by an entry give the natural chain unless they say otherwise; changes in a name come on top.
UniProt P07305: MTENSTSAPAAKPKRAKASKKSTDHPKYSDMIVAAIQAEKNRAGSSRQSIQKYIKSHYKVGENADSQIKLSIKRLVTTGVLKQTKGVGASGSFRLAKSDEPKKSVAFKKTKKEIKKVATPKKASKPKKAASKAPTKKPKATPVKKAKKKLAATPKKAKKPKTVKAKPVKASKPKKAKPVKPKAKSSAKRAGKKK
UniProt P09429: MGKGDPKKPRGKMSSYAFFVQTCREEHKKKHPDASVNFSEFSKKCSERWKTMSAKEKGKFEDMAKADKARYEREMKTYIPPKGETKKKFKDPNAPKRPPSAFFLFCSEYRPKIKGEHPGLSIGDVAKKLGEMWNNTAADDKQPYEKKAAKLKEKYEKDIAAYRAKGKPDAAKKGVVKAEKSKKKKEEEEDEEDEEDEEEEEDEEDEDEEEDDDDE

Key:
[1] = target: T1, GST-NS1 fusion protein (respiratory syncytial virus nonstructural protein 1) (respiratory syncytial virus) (UniProt P0DOE9); test: pull-down; GST or His fusion protein (30 ug) coupled to GST or His tag purification resin, 4 C 2 h; target fusion protein added overnight at 4 C; western blot; both purified
T1 sequence: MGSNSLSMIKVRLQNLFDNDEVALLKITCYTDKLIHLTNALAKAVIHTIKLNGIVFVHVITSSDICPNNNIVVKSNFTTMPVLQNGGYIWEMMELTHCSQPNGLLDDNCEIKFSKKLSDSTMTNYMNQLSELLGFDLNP

[2] = target: His-H1.0 fusion protein (histone H1.0) (UniProt P07305); test: as above
[3] = target: T2, nonstructural protein 1 (NS1) made in RSV-infected A549 cells (human RSV, A2 strain) (UniProt P0DOE9); test: co-IP; A549 cell lysates; HMGB1, NS1 or H1.0 antibody on SureBeads Protein G, 2 h room temperature; cells RSV-infected 24 h, or NS1/control lentivirus 72 h, or RSV 6 h then siNS1/siCON 24 h
T2 sequence: T1 sequence

| Substance | binding [1] | binding [2] | binding [3] |
| --- | --- | --- | --- |
| His-H1.0 fusion protein (histone H1.0) (from UniProt P07305 2-194) | binds | – | – |
| HA-HMGB1 fusion protein (high mobility group box-1) (from UniProt P09429 1-215) | no binding | binds | – |
| histone H1.0, endogenous in A549 cells (from UniProt P07305 1-194) | – | – | binds |
